In US20120004117A1:
No constants are given. Whether binding was seen depends on the method and setting. Some entries that bind do so weakly or less than the wild type. For some of these results: Tags and fused reporters may be left off the sequences shown.

The chains behind the UniProt entries cited, without tags or fusion partners. Where a name states a change or a piece, a line headed by the entry shows the natural chain unless it says otherwise.
UniProt Q53R12: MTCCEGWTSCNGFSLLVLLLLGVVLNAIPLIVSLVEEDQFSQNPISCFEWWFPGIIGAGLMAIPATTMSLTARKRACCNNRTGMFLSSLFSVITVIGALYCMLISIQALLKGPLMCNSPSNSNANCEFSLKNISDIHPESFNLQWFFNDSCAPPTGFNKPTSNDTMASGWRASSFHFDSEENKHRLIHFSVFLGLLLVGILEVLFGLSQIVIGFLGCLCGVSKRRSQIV

Assays:
[1] = target: human TM4SF20 (Transmembrane 4 L6 family member 20), endogenous (human) (UniProt Q53R12); experiment: flow cytometry, purified antibody at 10 µg/mL on A549 cells
[2] = target: C-terminally HA-tagged TM4SF20 expressed on CHO DG44 cells (TM4SF20_CHO) (human) (UniProt Q53R12); experiment: flow cytometry, hybridoma culture supernatant at 10 µg/mL on TM4SF20_CHO cells
[3] = target: T1, N-terminally HA-tagged chimeric TM4SF20 version 1 expressed on CHO DG44 cells (chimeric TM4SF20 ver.1_CHO) (human TM4SF20 with the first loop (amino acids 36-44) substituted by that of mouse TM4SF20) (UniProt Q53R12); experiment: flow cytometry, hybridoma culture supernatant on chimeric TM4SF20 ver.1_CHO cells
T1 sequence: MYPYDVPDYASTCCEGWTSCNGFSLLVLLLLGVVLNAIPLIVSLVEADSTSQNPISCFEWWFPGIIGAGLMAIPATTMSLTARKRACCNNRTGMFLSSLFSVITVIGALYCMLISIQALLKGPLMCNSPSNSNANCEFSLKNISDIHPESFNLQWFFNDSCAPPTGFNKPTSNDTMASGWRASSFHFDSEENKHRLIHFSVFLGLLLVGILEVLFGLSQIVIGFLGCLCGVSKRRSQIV

[4] = target: N-terminally HA-tagged TM4SF20 expressed on Ba/F3 cells (TM4SF20_Ba/F3) (human) (UniProt Q53R12); experiment: flow cytometry screening of hybridoma supernatants on TM4SF20_Ba/F3 against parental Ba/F3 cells

Measured: binding

B1: anti-TM4SF20 antibody B8 (antibody, mouse IgG2b, V domains shown)
VH: RVQLKESGPDLVQPSQTLSLTCTVSGFSLTNYGVHWIRQPPGKGLEWVGTVGWDDKKYYNSVLKSRLSINRDTSKNQVFLKLSSLQTEDTAMYYCTPYYDGSPYVMDYWGQGTSVTVSS
VL: DIVMSQSPSSLAVSAGEKVTMTCKSSQSLFDSGTRKNYLAWYQQKPGQSPKLLIYWASTRESGVPDRFTGSGSGTDFTLTISSVQAEDLAVYYCKQSYYLLTFGAGTKLELK
binds: [1] | [2] | [3] | [4]

B2: anti-TM4SF20 antibody B15 (antibody, mouse IgG2a, V domains shown)
VH: RVQLKESGPDLVQPSQTLSLTCTVSGFSLTNYGVHWIRQPPGKGLEWVGTVGWDDKKYYNSVLKSRLSINRDTSKNQVFLKLSSLQTEDTAMYYCTPYYDGSPYVMDYWGQGTSVTVSS
VL: DIVMSQSPSSLAVSAGEKVTMTCKSSQSLFDSGTRKNYLAWYQQKPGQSPKLLIYWASTRESGVPDRFTGSGSGTDFTLTISSVQAEDLAVYYCKQSYYLLTFGAGTKLELK
binds: [1] | [2] | [3] | [4]

B3: anti-TM4SF20 antibody C7 (antibody, mouse IgG1, V domains shown)
VH: QVQLKESGPDLVQPSQTLSLTCTVSGFSLSSYGVHWVRQPPGKGLEWVGTMGWDDKKYYNSALNSRLSLSRDTSKNQVFLKLSSLQTEDTAMYYCTRDYYSDGSFAYWGQGTLVTVSA
VL: DVLMTQTPLSLPVSLGDQASISCKSSQSIVHSDGNTYLQWYLQKPGQSPKLLIYKVSNRFSGVPDRFSGSGSGTDFTLKISRVEAEDLGIYYCFQGSHVPPTFGTGTKLEIK
binds: [1] | [2] | [3] | [4]

B4: anti-TM4SF20 antibody C9 (antibody, mouse IgG1, V domains shown)
VH: QVQLKESGPDLVQPSQTLSLTCTVSGFSLSSYGVHWVRQPPGKGLEWVGTMGWDDKKYYNSALNSRLSLSRDTSKNQVFLKLSSLQTEDTAMYYCTRDYYSDGSFAYWGQGTLVTVSA
VL: DVLMTQTPLSLPVSLGDQASISCKSSQSIVHSDGNTYLQWYLQKPGQSPKLLIYKVSNRFSGVPDRFSGSGSGTDFTLKISRVEAEDLGIYYCFQGSHVPPTFGTGTKLEIK
binds: [1] | [2] | [3] | [4]
